Measurements taken from patent US8598146B2, “Methods for identifying modulators of protein kinase C-epsilon (PKCε) and method of treatment of aberrant glucose metabolism associated therewith” (Garvan Institute of Medical Research, priority 2003, dated 2013).
At least one structure is not confirmed: it was looked up by name or label, or the drawing left a doubt.

System: pancreatic islets
Test: glucose-stimulated insulin secretion in pancreatic islets cultured 48 h with palmitate (FIG. 12)
Type: cell-based, mouse
Conditions: 48 h culture with BSA-coupled palmitate, 2.8 mM vs 16.7 mM glucose

With `CCCCCCCCCCCCCCCC(=O)O` [palmitate] the glucose-stimulated insulin secretion (islets from PKCε−/− mice) was “essentially normal” and the “basal and glucose-stimulated insulin secretion” value (wild type islets) was “an enhanced basal secretion and a diminished response to high glucose”.
